# According to patent US20170189504A1, “NOVEL PEPTIDES AND COMBINATION OF PEPTIDES FOR USE IN IMMUNOTHERAPY AGAINST VARIOUS CANCERS” (immatics biotechnologies GmbH, priority 2015, published 2017):
# System: HLA-A*02
# Assay: Identification and relative LC-MS quantitation of HLA-A*02-presented tumor-associated peptides on tissue samples (presentation profiles, Tables 13A, 13B, 15, FIG. 1)
# Parameters: species or system human; key to Presentation score NHL / Presentation score CLL / Presentation score BRCA / Presentation score AML / Presentation score GB / Presentation score NSCLC / Presentation score GBC_CCC / Presentation score UEC / Presentation score MEL / Presentation score OSCAR / Presentation score GC / Presentation score UBC / Presentation score OC / Presentation score RCC / Presentation score CRC / Presentation score PCA / Presentation score HCC / Presentation score PC / Presentation score SCLC: specifically presented on tumors (++++); very highly over-presented on tumors compared to a panel of normal tissues (+++); highly over-presented on tumors compared to a panel of normal tissues (++); over-presented on tumors compared to a panel of normal tissues (+)
# Details: for Presentation score NHL: non-Hodgkin lymphoma (N = 18) vs panel of normal tissues (N = 262); for Peptide Presentation on cancer entities: HLA-A*02-binding tumor-associated peptides; for Presentation score BRCA: breast cancer (N = 17) vs panel of normal tissues (N = 262); for Presentation score UEC: uterine cancer (N = 15) vs panel of normal tissues (N = 262); for Presentation score NSCLC: non-small cell lung cancer (N = 90) vs panel of normal tissues (N = 262); for Presentation score OSCAR: esophageal cancer, including cancer of the gastric-esophageal junction (N = 17) vs panel of normal tissues (N = 262); for Presentation score GC: gastric cancer (N = 29) vs panel of normal tissues (N = 262); for Presentation score UBC: urinary bladder cancer (N = 16) vs panel of normal tissues (N = 262); for Presentation score OC: ovarian cancer (N = 20) vs panel of normal tissues (N = 262); for Presentation score RCC: renal cell carcinoma (N = 20) vs panel of normal tissues (N = 262); for Presentation score GB: glioblastoma (N = 41) vs panel of normal tissues (N = 262); for Presentation score PCA: prostate cancer and benign prostate hyperplasia (N = 39) vs panel of normal tissues (N = 262); for Presentation score CLL: chronic lymphocytic leukemia (N = 17) vs panel of normal tissues (N = 262); for Presentation score AML: acute myeloid leukemia (N = 18) vs panel of normal tissues (N = 262); for Presentation score GBC_CCC: gallbladder adenocarcinoma and cholangiocarcinoma (N = 6) vs panel of normal tissues (N = 262)
# [1] = Table 13A, cancer entities on which the peptide was found presented
# [2] = Table 13B, presentation on additional cancer entities
Substance,Peptide Presentation on cancer entities [1],Peptide Presentation on cancer entities [2],Presentation score NSCLC (HLA-A*02 peptides),Presentation score OC (HLA-A*02 peptides),other results
107 (LLVPTSGIYFV; listed as Homo sapiens) [compound 107],NHL,,,,Presentation score NHL (HLA-A*02 peptides): ++++
108 (ILLKNLVTI; listed as Homo sapiens) [compound 108],BRCA,,,,Presentation score BRCA (HLA-A*02 peptides): ++++
109 (SLDPSVTHL; listed as Homo sapiens) [compound 109],UEC,,,,Presentation score UEC (HLA-A*02 peptides): ++++
110 (FLLGVSKEV; listed as Homo sapiens) [compound 110],MEL,NHL,,,"Presentation score MEL (HLA-A*02 peptides, melanoma (N = 7) vs panel of normal tissues (N = 262)): ++++"
112 (SLGKFTFDV; listed as Homo sapiens) [compound 112],"NSCLC, UEC",,++++,,Presentation score UEC (HLA-A*02 peptides): ++++
113 (FLERGLESA; listed as Homo sapiens) [compound 113],"GC, OSCAR, UBC",,,,Presentation score OSCAR (HLA-A*02 peptides): ++++; Presentation score GC (HLA-A*02 peptides): ++++; Presentation score UBC (HLA-A*02 peptides): ++++
114 (QLIQTLHAV; listed as Homo sapiens) [compound 114],"OC, RCC",,,++++,Presentation score RCC (HLA-A*02 peptides): ++++
115 (SLDPDTLPAV; listed as Homo sapiens) [compound 115],"NSCLC, OC",,++++,++++,
117 (KMPDVELFV; listed as Homo sapiens) [compound 117],,"NSCLC, SCLC, MEL",+,,
118 (QLWQFLVTL; listed as Homo sapiens) [compound 118],,MEL,,++++,
119 (FIIQGLRSVGA; listed as Homo sapiens) [compound 119],"NSCLC, OC",,++++,++++,
122 (GVVDPVHGV; listed as Homo sapiens) [compound 122],"GC, NSCLC, OSCAR",,++++,,Presentation score OSCAR (HLA-A*02 peptides): ++++; Presentation score GC (HLA-A*02 peptides): ++++
124 (KVMATIEKV; listed as Homo sapiens) [compound 124],"NSCLC, OC",,++++,++++,
125 (SLADYEHFV; listed as Homo sapiens) [compound 125],"GB, PCA",,,,Presentation score GB (HLA-A*02 peptides): ++++; Presentation score PCA (HLA-A*02 peptides): ++++
126 (QMFQYFITV; listed as Homo sapiens) [compound 126],"NSCLC, CLL",UEC,++++,,Presentation score CLL (HLA-A*02 peptides): ++++
128 (TQSPATLSV; listed as Homo sapiens) [compound 128],"GC, OSCAR",,,,Presentation score OSCAR (HLA-A*02 peptides): ++++; Presentation score GC (HLA-A*02 peptides): ++++

Substance,Peptide Presentation on cancer entities [1],Peptide Presentation on cancer entities [2],Presentation score NSCLC (HLA-A*02 peptides),Presentation score OC (HLA-A*02 peptides),other results
129 (RLQDILWFL; listed as Homo sapiens) [compound 129],"NSCLC, AML",,++++,,Presentation score AML (HLA-A*02 peptides): ++++
130 (SLLGGTFVGI; listed as Homo sapiens) [compound 130],UBC,HCC,,,Presentation score UBC (HLA-A*02 peptides): ++++
131 (VTSNSGILGV; listed as Homo sapiens) [compound 131],"CLL, NHL",,,,Presentation score CLL (HLA-A*02 peptides): ++++; Presentation score NHL (HLA-A*02 peptides): ++++
132 (ILGEVLAQL; listed as Homo sapiens) [compound 132],"CLL, NHL",,,,Presentation score CLL (HLA-A*02 peptides): ++++; Presentation score NHL (HLA-A*02 peptides): ++++
133 (ALLPRLHQL; listed as Homo sapiens) [compound 133],PCA,,,,Presentation score PCA (HLA-A*02 peptides): ++++
134 (GLAVPTPSV; listed as Homo sapiens) [compound 134],"NSCLC, OC",HNSCC,++++,++++,
136 (FLFGGVLMTL; listed as Homo sapiens) [compound 136],"OC, NHL",,,++++,Presentation score NHL (HLA-A*02 peptides): ++++
140 (VLLEELEAL; listed as Homo sapiens) [compound 140],"NSCLC, PCA, CLL, OSCAR, OC, SCLC, UEC, BRCA, GBC_CCC, MEL, AML, NHL","HCC, CRC, HNSCC",,+,Presentation score AML (HLA-A*02 peptides): ++; Presentation score CLL (HLA-A*02 peptides): ++; Presentation score GBC_CCC (HLA-A*02 peptides): +; Presentation score NHL (HLA-A*02 peptides): +; Presentation score UEC (HLA-A*02 peptides): +++
141 (FLDKVLVAA; listed as Homo sapiens) [compound 141],"GC, NSCLC, PCA, CLL, OSCAR, UBC, RCC, AML, NHL","HCC, OC, UEC, BRCA, MEL, CRC, HNSCC",,,Presentation score AML (HLA-A*02 peptides): ++; Presentation score CLL (HLA-A*02 peptides): +
142 (ILVEGISTV; listed as Homo sapiens) [compound 142],"GB, NSCLC, PCA, OC, SCLC, BRCA, GBC_CCC",,+++,,Presentation score PCA (HLA-A*02 peptides): +
143 (ALLPELREV; listed as Homo sapiens) [compound 143],"GB, GC, NSCLC, HCC, BRCA, GBC_CCC, RCC, CRC","OC, SCLC, AML, HNSCC",+,,"Presentation score GBC_CCC (HLA-A*02 peptides): +; Presentation score GB (HLA-A*02 peptides): +; Presentation score HCC (HLA-A*02 peptides, hepatocellular carcinoma (N = 16) vs panel of normal tissues (N = 262)): +"
144 (ALLAFFPGL; listed as Homo sapiens) [compound 144],"GB, GC, NSCLC, OSCAR, OC, UBC, BRCA, MEL, CRC, PC, AML, NHL",,++,,"Presentation score AML (HLA-A*02 peptides): +++; Presentation score BRCA (HLA-A*02 peptides): +; Presentation score CRC (HLA-A*02 peptides, colorectal cancer (N = 28) vs panel of normal tissues (N = 262)): +; Presentation score OSCAR (HLA-A*02 peptides): +++; Presentation score GC (HLA-A*02 peptides): ++; Presentation score GB (HLA-A*02 peptides): +++"
145 (YLWATIQRI; listed as Homo sapiens) [compound 145],"NSCLC, OSCAR, OC, AML",UEC,+,+++,Presentation score AML (HLA-A*02 peptides): ++; Presentation score OSCAR (HLA-A*02 peptides): +
147 (YLMDDTVEI; listed as Homo sapiens) [compound 147],"OC, GBC_CCC",,,+++,Presentation score GBC_CCC (HLA-A*02 peptides): +++
149 (ILNTHITEL; listed as Homo sapiens) [compound 149],NHL,BRCA,,,Presentation score NHL (HLA-A*02 peptides): ++++
151 (SVLDSTAKV; listed as Homo sapiens) [compound 151],"GC, NSCLC, OSCAR, OC, UBC, BRCA, RCC, CRC, NHL","HCC, UEC, GBC_CCC, MEL, HNSCC",,++,Presentation score OSCAR (HLA-A*02 peptides): +; Presentation score GC (HLA-A*02 peptides): +; Presentation score RCC (HLA-A*02 peptides): +
